Laboratory results taken from article PMC3305409, “Naloxone inhibits immune cell function by suppressing superoxide production through a direct interaction with gp91^phox subunit of NADPH oxidase” (2012).
Where two headings read alike, the source gives them in different places.

The chains behind the UniProt entries cited, without tags or fusion partners. Residues count along the entry.
UniProt Q61093, 2-570: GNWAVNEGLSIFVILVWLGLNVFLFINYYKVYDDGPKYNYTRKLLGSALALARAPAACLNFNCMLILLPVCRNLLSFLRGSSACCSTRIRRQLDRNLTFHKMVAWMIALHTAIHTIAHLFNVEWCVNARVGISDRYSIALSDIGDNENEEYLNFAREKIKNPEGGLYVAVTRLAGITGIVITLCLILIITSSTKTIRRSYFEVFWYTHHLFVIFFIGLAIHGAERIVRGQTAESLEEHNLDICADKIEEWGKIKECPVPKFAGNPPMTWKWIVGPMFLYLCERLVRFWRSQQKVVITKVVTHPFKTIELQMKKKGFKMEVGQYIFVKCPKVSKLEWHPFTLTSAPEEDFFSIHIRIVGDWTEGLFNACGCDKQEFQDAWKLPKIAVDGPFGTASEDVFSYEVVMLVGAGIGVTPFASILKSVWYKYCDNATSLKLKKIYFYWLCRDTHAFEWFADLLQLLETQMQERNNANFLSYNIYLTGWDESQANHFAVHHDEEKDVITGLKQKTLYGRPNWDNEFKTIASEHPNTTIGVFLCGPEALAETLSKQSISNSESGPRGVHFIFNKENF

Experiments:
[1] = biological target: T1, gp91phox (catalytic membrane subunit of NADPH oxidase, NOX2) (Mus musculus, UniProt Q61093); experiment: cell-based
T1 construct: gene Cybb

[2] = biological target: T1, gp91phox (catalytic membrane subunit of NADPH oxidase, NOX2); experiment: cell-based; remark: listed apart in the source

Structure (SMILES) | IC50 [1] [nM] | IC50 [2] [nM]
C=CCN1CC[C@]23c4c5ccc(O)c4O[C@H]2C(=O)CC[C@@]3(O)[C@H]1C5 [(-)-naloxone] | 2730 | 
C=CCN1CC[C@]23c4c5ccc(O)c4O[C@H]2C(=O)CC[C@@]3(O)[C@H]1C5 [(+)-naloxone] |  | 1570
